This note sets out measurements from patent publication US10730851B2, “Polymorph of triaryldimethylpiperazine dihydrochloride and preparation method and application thereof” (priority 2016, dated 2020).

SMILES strings stand for the structures. Structures can show the parent of a compound that is named as a salt. Where two headings read alike, the source gives them in different places. Further values from the same series stand in other lists.

A short description of series [1]: Dynamic solubility test in water, SGF, FeSSIF, FaSSIF. The class given is physicochemical. How it is done:
The dynamic solubility of a free base, polymorph forms B, P, F, J and O in water or a biological medium such as Stimulated Gastric Fluid (SGF), Fed State Simulated Intestinal Fluid (FeSSIF) or Fasted State Simulated Intestinal Fluid (FaSSIF) is determined.
0.2 g sodium chloride and 0.1 g Triton X-100 is weighed and placed into a 100 mL volumetric flask. Purified water is added to dissolve. A stir is performed until the solid is completely dissolved. About 135 μL concentrated hydrochloric acid solution (37%, […]) is added, then the pH is adjusted to 1.8 with […] hydrochloric acid or 1 mmoL/L sodium hydroxide. Finally, the volume is fixed with purified water to obtain Stimulated Gastric Fluid (SGF) for later use.
Each of 0.41 mL glacial acetic acid, 0.20 g sodium hydroxide and 0.59 g sodium chloride is weighed and placed to a 50 mL volumetric flask. About 48 mL purified water is added to dissolve, the pH is adjusted to 5.0 with 1 mmoL/L hydrochloric acid or 1 mmoL/L sodium hydroxide, and the volume is fixed with purified water. Then 0.56 g of Simulated Intestinal Fluid powder (SIF powder for short, which is composed of […] with a molar ratio of 4:1) is added, stirred and ultrasonically dissolved to obtain Fed State Simulated Intestinal Fluid (FeSSIF) for later use.
Each of 0.17 g of anhydrous sodium dihydrogen phosphate (NaH2PO4), 0.021 g of sodium hydroxide and 0.31 g of sodium chloride is weighed and placed into a 50 mL volumetric flask. About 48 mL of purified water is added to dissolve, the pH is adjusted to 6.5 with 1 mmoL/L hydrochloric acid or 1 mmoL/L sodium hydroxide, and the volume is fixed with purified water. 0.11 g of SIF powder is added, stirred and ultrasonically dissolved to obtain Fasted State Simulated Intestinal Fluid (FaSSIF) for later use.
Each 30 mg of the free base, and polymorph forms B, P, F, J and O are weighed. 3 mL of purified water, Stimulated Gastric Fluid (SGF), Fed State Simulated Intestinal Fluid (FeSSIF) or Fasted State Simulated Intestinal Fluid (FaSSIF)) is added and oscillated at room temperature. 0.6 mL of suspension is taken each time at a set time point, filtered and separated with a 0.45 μm nylon filter membrane, then XRPD characterization is performed on the solid sample, and the concentration in the clear solution is measured by HPLC.

Another series in a line: Rough solubility test. The class given is physicochemical. How it is done:
2.0 mg of a free base and 2.0 mg of polymorph forms B, F, P, J and O are respectively taken and placed in 3.0 mL glass bottles. Then the solvent methanol is added step by step, and ultrasound is performed to observe whether the sample is completely dissolved. If the sample is still not completely dissolved after 2.0 mL of solvent is added, the test is stopped to measure the rough solubility of the free base, polymorph forms B, F, P, J and O in methanol respectively.
Using the same method, the rough solubility of the free base, polymorph forms B, P, F, J and O in other organic solvents or water listed in Table 6 are determined respectively.

Consider `CC1CCN(C(=O)c2ccc([C@H](c3cccc(O)c3)N3C[C@@H](C)N(Cc4cccc(F)c4)C[C@@H]3C)cc2)CC1` [Polymorph form J, (4-((R)-((2S,5R)-4-(3-fluorobenzyl)-(2,5-dimethylpiperazine-1-yl)(3-hydroxyphenyl)methyl)phenyl)(4-methylpiperidine-1-yl)methanone dihydrochloride], for which the “Crystal form of insoluble solid sample” value in series [1] was “Monohydro-”; in series [1] (pH 1.8) it was “amorphism”; in series [1] (pH 5), “amorphism”; in series [1] (pH 6.5), “amorphism”.

As to `CC1CCN(C(=O)c2ccc([C@H](c3cccc(O)c3)N3C[C@@H](C)N(Cc4cccc(F)c4)C[C@@H]3C)cc2)CC1` [Polymorph form O, (4-((R)-((2S,5R)-4-(3-fluorobenzyl)-(2,5-dimethylpiperazine-1-yl)(3-hydroxyphenyl)methyl)phenyl)(4-methylpiperidine-1-yl)methanone dihydrochloride], the “Crystal form of insoluble solid sample” value is recorded as “Monohydro-” in series [1], “invariability” in series [1] (pH 1.8), “invariability” in series [1] (pH 5) and “invariability” in series [1] (pH 6.5).

Take `CC1CCN(C(=O)c2ccc([C@H](c3cccc(O)c3)N3C[C@@H](C)N(Cc4cccc(F)c4)C[C@@H]3C)cc2)CC1` [free base]: the Rough solubility in the series “Rough solubility test” (1,4-dioxane) was 12000 to 15000 µg/mL; in “Rough solubility test” (2-MeTHF (second line for this solvent)) it was 4700 to 5100 µg/mL; in “Rough solubility test” (2-methyltetrahydrofuran) it was 4700 to 5100 µg/mL; in “Rough solubility test” (Acetone) it was 29000 to 30800 µg/mL; in “Rough solubility test” (Acetonitrile), 42900 to 43100 µg/mL; in the series “Rough solubility test” (Chloroform), 20700 to 31000 µg/mL. Further, the Rough solubility is 5200 to 5600 µg/mL in “Rough solubility test” (Ethanol); 7700 to 9000 µg/mL in “Rough solubility test” (Ethyl acetate); 3300 to 3500 µg/mL in “Rough solubility test” (Isopropyl acetate); 4600 to 4900 µg/mL in “Rough solubility test” (Isopropyl alcohol); 22000 to 23000 µg/mL in the series “Rough solubility test” (Methanol); 3500 to 3800 µg/mL in the series “Rough solubility test” (Methyl isobutyl ketone). Further, the Rough solubility in “Rough solubility test” (Methyl tert-butyl ether) is 2400 to 2600 µg/mL; in the series “Rough solubility test” (N,N-dimethylacetamide), 11500 to 15300 µg/mL; in “Rough solubility test” (N-heptane), under 1500 µg/mL; in “Rough solubility test” (N-methylpyrrolidone), 7400 to 8700 µg/mL; in “Rough solubility test” (Tetrahydrofuran) it was 17000 to 22600 µg/mL; in the series “Rough solubility test” (Toluene), 1300 to 1400 µg/mL. Further, the Rough solubility in “Rough solubility test” (Water) was under 1100 µg/mL; in the series “Rough solubility test” (dichloromethane), 10000 to 12500 µg/mL; in the series “Rough solubility test” (dimethyl sulfoxide), 9300 to 11200 µg/mL. Also, the “Crystal form of insoluble solid sample” value in series [1] (Water, Time 1, XRPD) is “invariability”. In series [1] (Water, Time 1, room temperature), the Solubility result was “<LOQ”.

For the compound `CC1CCN(C(=O)c2ccc([C@H](c3cccc(O)c3)N3C[C@@H](C)N(Cc4cccc(F)c4)C[C@@H]3C)cc2)CC1` [Polymorph form B, (4-((R)-((2S,5R)-4-(3-fluorobenzyl)-(2,5-dimethylpiperazine-1-yl)(3-hydroxyphenyl)methyl)phenyl)(4-methylpiperidine-1-yl)methanone dihydrochloride], the “Crystal form of insoluble solid sample” value in series [1] (pH 1.8), in series [1] (pH 5) and in series [1] (pH 6.5) was “amorphism” throughout.
